Where two headings read alike, the source gives them in different places. No constants are given. Whether binding was seen depends on the method and setting. For some assays here: Binding seen in cells or lysates may run through a third protein. Some binding calls cover weakened binding; strength is not graded here. For some assays here: Sequences can lack the tags named with a protein.
T1: GFP-tagged Cdt1 (92-546 a. a.) (human) (UniProt Q9H211)
T1 sequence: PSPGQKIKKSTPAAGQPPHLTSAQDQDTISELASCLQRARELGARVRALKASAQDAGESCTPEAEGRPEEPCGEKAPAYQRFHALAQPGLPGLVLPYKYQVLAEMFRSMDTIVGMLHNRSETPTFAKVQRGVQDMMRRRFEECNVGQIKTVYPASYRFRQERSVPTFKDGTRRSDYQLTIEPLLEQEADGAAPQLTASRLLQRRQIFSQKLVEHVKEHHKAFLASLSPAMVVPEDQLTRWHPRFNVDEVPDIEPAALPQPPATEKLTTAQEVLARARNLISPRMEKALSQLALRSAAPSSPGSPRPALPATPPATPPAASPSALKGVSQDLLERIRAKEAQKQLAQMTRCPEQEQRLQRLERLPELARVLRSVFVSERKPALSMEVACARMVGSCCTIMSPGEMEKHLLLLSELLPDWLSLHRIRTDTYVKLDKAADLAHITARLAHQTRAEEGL

Chains of the proteins cited; added tags and fusions are not shown. Residues count along the entry.
UniProt Q8IX90, whole entry: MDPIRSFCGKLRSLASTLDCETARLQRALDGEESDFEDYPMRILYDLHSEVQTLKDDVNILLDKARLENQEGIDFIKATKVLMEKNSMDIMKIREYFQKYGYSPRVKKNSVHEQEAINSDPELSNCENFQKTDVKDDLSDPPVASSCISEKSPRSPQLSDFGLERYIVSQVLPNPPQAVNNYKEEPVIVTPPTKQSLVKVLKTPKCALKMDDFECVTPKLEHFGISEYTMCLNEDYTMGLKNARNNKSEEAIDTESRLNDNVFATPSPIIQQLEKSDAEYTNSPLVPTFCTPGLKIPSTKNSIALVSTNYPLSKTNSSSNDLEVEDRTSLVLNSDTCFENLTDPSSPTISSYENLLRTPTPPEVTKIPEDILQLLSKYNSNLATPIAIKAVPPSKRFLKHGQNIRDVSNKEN
UniProt Q96BD8, whole entry: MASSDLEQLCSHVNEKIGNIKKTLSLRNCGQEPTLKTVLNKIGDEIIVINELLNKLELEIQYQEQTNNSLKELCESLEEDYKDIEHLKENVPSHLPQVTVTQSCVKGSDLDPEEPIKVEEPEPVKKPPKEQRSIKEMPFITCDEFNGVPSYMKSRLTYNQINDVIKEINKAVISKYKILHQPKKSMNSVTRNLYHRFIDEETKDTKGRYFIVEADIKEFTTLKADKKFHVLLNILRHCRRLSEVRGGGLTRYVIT
UniProt P02769, 25-607: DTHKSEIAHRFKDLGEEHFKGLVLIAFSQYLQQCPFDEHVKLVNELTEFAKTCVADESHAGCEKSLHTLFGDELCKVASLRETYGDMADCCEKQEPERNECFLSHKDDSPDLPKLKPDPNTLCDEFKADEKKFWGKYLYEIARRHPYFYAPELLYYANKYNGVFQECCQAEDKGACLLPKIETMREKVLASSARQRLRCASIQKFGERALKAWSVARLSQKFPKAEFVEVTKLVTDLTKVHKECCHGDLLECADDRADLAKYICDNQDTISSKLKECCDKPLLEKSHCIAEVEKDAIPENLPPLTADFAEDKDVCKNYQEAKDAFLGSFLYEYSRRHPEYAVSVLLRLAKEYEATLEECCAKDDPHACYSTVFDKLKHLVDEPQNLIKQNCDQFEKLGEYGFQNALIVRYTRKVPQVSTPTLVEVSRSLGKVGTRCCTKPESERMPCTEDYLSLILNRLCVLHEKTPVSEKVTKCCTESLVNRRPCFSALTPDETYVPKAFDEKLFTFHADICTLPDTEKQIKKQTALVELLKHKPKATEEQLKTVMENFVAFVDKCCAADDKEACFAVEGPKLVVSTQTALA

T2: Cdt1 (endogenous) (human (endogenous in HeLa)) (UniProt Q9H211)
T2 sequence: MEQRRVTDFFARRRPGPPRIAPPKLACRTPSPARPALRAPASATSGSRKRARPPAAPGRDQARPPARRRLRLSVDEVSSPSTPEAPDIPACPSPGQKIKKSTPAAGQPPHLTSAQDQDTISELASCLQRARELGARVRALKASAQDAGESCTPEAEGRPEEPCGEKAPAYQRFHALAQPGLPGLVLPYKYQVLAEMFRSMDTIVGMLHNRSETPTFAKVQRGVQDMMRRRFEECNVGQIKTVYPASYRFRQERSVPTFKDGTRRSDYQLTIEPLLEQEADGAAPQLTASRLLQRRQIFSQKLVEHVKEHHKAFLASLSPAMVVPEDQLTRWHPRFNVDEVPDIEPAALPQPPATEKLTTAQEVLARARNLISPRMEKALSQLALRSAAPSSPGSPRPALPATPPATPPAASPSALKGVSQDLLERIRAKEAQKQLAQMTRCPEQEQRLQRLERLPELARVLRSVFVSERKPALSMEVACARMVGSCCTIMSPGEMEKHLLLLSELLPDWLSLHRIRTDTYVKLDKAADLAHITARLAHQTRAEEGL

T3: HA-tagged Cdt1-WT (human) (UniProt Q9H211)
T3 sequence: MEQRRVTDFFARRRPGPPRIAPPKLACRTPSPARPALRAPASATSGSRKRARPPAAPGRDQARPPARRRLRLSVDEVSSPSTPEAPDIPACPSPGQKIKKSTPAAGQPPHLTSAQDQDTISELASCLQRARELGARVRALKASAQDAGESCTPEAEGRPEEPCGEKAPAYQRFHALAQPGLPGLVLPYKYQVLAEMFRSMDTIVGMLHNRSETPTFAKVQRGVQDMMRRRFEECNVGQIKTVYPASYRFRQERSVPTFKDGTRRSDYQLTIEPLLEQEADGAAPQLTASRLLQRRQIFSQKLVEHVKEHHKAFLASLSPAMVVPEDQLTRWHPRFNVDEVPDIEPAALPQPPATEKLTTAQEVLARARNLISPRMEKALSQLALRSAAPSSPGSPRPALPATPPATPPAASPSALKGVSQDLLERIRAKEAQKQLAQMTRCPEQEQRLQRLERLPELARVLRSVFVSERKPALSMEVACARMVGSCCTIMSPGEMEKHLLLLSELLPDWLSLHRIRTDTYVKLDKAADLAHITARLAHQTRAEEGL

T4: GST-tagged Cdt1^92-546 (human) (UniProt Q9H211)
T4 sequence: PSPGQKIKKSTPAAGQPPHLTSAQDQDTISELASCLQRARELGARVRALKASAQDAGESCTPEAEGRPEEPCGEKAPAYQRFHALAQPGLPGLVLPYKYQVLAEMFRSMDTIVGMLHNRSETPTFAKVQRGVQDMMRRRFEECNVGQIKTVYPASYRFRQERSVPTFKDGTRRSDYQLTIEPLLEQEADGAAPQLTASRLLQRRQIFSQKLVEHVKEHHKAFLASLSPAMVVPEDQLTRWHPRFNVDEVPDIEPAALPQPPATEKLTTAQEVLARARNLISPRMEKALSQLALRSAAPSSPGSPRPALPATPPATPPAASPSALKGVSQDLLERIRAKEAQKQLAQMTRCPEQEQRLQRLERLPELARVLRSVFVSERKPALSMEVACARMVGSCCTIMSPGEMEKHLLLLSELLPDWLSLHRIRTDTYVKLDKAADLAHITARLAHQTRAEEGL

T5: HA/His-tagged Cdt1 (human) (UniProt Q9H211)
T5 sequence: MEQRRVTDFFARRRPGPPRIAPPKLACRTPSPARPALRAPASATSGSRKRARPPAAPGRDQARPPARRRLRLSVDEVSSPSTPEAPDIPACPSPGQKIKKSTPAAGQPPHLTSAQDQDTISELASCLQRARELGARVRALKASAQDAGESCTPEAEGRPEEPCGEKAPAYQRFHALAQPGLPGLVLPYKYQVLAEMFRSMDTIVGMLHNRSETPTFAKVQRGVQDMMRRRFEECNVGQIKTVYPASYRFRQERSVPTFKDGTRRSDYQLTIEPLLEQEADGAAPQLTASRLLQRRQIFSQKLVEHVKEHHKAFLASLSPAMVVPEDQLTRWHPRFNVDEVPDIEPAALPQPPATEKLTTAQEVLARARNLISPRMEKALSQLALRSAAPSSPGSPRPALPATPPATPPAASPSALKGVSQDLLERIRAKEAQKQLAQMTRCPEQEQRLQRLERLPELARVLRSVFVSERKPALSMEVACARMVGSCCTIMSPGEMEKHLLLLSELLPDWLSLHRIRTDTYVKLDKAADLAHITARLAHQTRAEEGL


How the values were obtained:
[1] = target: T1, GFP-tagged Cdt1 (92-546 a. a.) (human); assay: BLI
[2] = target: T1, GFP-tagged Cdt1 (92-546 a. a.) (human); assay: SEC
[3] = target: T1, GFP-tagged Cdt1 (92-546 a. a.) (human); assay: far-Western, overlay or dot blot
[4] = target: T2, Cdt1 (endogenous) (human (endogenous in HeLa)); assay: co-IP
[5] = target: T3, HA-tagged Cdt1-WT (human); assay: co-IP
[6] = target: T4, GST-tagged Cdt1^92-546 (human); assay: pull-down
[7] = target: T5, HA/His-tagged Cdt1 (human); assay: pull-down
[8] = target: SKA3 (endogenous) (human (endogenous in HeLa and HEK293T)) (UniProt Q8IX90); assay: co-IP
GFP-SKA1 = GFP-SKA1 (UniProt Q96BD8); assay: co-IP
[9] = target: SKA3 (endogenous) (human (endogenous in HeLa and HEK293T)) (UniProt Q8IX90); assay: co-IP; remark: listed apart in the source

Row | binding [4] | binding [5] | binding [6] | binding [7] | Molecule | other results
1 | – | – | – | – | BSA (from UniProt P02769 25-607) | binding [1]: no binding
2 | – | – | – | – | dimeric SKA1/SKA2 complex (from UniProt Q96BD8;Q8WVK7) | binding [2]: binds
3 | – | – | – | – | Ska1 complex assembled by combining equimolar His-tagged SKA1/2 and GST-tagged SKA3 (from UniProt Q96BD8;Q8WVK7;Q8IX90) | binding [3]: binds
4 | binds | binds | binds | binds | SKA3 (endogenous) (from UniProt Q8IX90 1-412) | –
5 | binds | binds | binds | binds | SKA1 (endogenous) (from UniProt Q96BD8 1-255) | binding [8]: binds
6 | – | – | – | – | Cdt1 (endogenous) (protein, UniProt Q9H211 1-546) MEQRRVTDFFARRRPGPPRIAPPKLACRTPSPARPALRAPASATSGSRKRARPPAAPGRDQARPPARRRLRLSVDEVSSPSTPEAPDIPACPSPGQKIKKSTPAAGQPPHLTSAQDQDTISELASCLQRARELGARVRALKASAQDAGESCTPEAEGRPEEPCGEKAPAYQRFHALAQPGLPGLVLPYKYQVLAEMFRSMDTIVGMLHNRSETPTFAKVQRGVQDMMRRRFEECNVGQIKTVYPASYRFRQERSVPTFKDGTRRSDYQLTIEPLLEQEADGAAPQLTASRLLQRRQIFSQKLVEHVKEHHKAFLASLSPAMVVPEDQLTRWHPRFNVDEVPDIEPAALPQPPATEKLTTAQEVLARARNLISPRMEKALSQLALRSAAPSSPGSPRPALPATPPATPPAASPSALKGVSQDLLERIRAKEAQKQLAQMTRCPEQEQRLQRLERLPELARVLRSVFVSERKPALSMEVACARMVGSCCTIMSPGEMEKHLLLLSELLPDWLSLHRIRTDTYVKLDKAADLAHITARLAHQTRAEEGL | binding (GFP-SKA1): binds; binding [9]: binds
